Experimental data from publication PMC8274477.
These are yes or no findings as the source states them, for the method shown. Some entries that bind do so weakly or less than the wild type.

Amino acid sequences for entries named in this document (tags omitted).
UniProt Q01844: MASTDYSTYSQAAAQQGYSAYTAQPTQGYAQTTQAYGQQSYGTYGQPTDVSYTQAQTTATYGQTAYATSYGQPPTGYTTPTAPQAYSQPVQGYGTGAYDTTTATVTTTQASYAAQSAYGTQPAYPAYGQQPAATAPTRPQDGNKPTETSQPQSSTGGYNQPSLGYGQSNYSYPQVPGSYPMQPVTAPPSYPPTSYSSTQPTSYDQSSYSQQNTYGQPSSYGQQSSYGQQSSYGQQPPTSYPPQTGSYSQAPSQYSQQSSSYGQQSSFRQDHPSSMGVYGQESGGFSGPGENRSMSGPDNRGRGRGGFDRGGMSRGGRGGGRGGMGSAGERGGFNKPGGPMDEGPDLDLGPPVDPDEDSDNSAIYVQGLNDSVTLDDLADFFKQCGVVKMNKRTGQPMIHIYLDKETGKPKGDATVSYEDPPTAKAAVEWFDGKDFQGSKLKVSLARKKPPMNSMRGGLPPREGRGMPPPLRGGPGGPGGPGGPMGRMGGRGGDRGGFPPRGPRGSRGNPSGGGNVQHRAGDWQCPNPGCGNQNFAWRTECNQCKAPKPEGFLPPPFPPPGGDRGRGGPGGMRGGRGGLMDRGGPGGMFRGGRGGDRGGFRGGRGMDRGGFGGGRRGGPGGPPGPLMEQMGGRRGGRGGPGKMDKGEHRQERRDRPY
UniProt Q07666: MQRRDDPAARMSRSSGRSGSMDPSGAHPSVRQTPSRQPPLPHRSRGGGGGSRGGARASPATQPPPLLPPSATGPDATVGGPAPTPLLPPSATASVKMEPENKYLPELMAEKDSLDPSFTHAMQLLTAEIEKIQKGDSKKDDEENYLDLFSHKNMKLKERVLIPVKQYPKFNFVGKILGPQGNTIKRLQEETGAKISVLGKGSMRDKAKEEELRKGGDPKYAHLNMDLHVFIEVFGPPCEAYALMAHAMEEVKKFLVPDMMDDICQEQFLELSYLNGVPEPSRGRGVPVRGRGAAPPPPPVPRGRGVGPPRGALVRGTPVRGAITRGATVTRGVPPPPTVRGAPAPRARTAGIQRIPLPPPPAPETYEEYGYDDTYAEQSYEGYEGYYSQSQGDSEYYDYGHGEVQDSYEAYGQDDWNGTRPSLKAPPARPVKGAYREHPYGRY
UniProt Q92623: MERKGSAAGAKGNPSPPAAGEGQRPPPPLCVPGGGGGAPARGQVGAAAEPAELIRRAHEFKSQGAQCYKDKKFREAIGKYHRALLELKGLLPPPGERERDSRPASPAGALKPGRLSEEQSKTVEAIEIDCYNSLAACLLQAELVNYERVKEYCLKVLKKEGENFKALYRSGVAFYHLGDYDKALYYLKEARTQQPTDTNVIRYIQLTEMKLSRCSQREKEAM
UniProt Q8N8S7: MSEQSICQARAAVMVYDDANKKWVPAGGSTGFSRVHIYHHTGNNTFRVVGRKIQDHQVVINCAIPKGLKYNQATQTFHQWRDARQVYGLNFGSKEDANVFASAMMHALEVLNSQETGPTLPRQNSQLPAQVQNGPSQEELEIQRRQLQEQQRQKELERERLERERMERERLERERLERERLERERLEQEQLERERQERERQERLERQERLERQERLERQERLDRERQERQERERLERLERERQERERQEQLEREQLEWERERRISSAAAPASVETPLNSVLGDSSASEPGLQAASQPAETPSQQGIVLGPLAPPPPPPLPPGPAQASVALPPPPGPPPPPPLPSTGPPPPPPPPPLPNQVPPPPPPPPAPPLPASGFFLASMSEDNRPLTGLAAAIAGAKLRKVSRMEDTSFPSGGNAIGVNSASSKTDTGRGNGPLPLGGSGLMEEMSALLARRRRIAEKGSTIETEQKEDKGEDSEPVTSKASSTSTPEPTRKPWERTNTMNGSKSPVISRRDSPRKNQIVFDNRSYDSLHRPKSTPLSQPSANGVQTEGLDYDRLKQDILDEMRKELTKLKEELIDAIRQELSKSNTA
UniProt P51148: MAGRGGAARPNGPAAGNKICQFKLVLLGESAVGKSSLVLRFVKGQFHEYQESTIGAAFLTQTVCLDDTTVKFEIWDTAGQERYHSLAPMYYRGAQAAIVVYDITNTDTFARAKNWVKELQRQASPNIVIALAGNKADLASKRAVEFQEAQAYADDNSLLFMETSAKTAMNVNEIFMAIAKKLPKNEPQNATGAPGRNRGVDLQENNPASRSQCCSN
UniProt Q9BTL3: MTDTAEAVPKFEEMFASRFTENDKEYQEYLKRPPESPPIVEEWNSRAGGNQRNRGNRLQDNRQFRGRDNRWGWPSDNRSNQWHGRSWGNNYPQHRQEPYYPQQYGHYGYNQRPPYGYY

Assays:
Test in all cases: peptide or protein array; HuProt human proteome microarray; 5 ug/5 ml biotin-labelled LUBAC or OTULIN in solution, 1 h at room temperature; Cy5-streptavidin, scanned at 635 nm; BSA as negative control; hits: Z-score >= 3 and I_(Mean_Ratio) >= 1.4; both purified
[1] = target: EWSR1 (human) (UniProt Q01844)
[2] = target: T1, KLHDC9 (human) (UniProt Q8NEP7)
T1 sequence: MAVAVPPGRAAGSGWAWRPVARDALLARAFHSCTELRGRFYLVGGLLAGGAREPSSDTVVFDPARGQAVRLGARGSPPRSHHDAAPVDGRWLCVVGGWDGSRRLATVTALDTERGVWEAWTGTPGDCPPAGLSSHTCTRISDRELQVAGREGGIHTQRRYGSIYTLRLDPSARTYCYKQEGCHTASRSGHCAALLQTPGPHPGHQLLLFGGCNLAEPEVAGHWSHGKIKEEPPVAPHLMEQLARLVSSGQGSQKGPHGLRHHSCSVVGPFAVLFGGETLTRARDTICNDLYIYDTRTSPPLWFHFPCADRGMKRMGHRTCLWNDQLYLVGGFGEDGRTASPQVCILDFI

[3] = target: KHDRBS1 (human) (UniProt Q07666)
[4] = target: TTC9 (human) (UniProt Q92623)
[5] = target: T2, ALKBH2 (human) (UniProt Q6NS38)
T2 sequence: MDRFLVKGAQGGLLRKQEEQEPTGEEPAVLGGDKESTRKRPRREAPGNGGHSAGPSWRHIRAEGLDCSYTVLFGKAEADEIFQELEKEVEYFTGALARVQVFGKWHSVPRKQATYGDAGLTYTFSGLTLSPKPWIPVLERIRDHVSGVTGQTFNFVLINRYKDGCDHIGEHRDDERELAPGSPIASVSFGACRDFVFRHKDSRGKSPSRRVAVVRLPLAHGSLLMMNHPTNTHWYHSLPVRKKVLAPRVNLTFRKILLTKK

[6] = target: ENAH (human) (UniProt Q8N8S7)
[7] = target: T3, MBNL3 (human) (UniProt Q9NUK0)
T3 sequence: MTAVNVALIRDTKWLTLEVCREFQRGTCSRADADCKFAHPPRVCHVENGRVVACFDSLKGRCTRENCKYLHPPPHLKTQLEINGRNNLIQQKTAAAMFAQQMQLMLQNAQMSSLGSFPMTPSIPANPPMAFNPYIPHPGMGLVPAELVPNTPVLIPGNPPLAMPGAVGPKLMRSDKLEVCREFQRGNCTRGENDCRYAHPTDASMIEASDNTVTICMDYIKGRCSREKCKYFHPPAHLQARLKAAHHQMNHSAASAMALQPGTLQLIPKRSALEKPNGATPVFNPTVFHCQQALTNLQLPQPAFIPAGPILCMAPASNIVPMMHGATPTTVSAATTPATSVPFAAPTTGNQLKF

[8] = target: RAB5C (human) (UniProt P51148)
[9] = target: FAM103A1 (human) (UniProt Q9BTL3)

Measured: binding

linear ubiquitin chain assembly complex (LUBAC), purified as HIS-tagged HOIP with the subunit HOIL-1, biotin-labelled (from UniProt Q96EP0 1-1072; Q9BYM8 1-510)
binds: all assays above
